The source of these data is article PMC11638703 (RSC Advances, 2024).

The subject of the assay is MCF-7 cells. The assay is described as follows: Cytotoxicity, MTT assay, MCF-7 cells. Format: cell-based. Conditions: Homo sapiens, MCF7, read-out: IC50 ± SD.

As to `CN[C@@H]1C[C@H]2O[C@@](C)([C@@H]1OC)n1c3ccccc3c3c4c(c5c6ccccc6n2c5c31)C(=O)NC4` [Staurosporine, reference compound], the IC50 came to 6.76 µM.

In general, IC50 refers to the concentration that inhibits the measured activity by half.
